Measured values taken from the supplement of paper PMC3334620.
In all, about 33,000 sequences were measured (“E-score (-0.5 to 0.5)”: median about -8e-05, highest 2% from about 0.23 on). This is one part of the list.

target: T1, Nrg2 (UniProt P38082); assay: PBM E-score (8-mer binding enrichment) (E-score (-0.5 to 0.5)); higher = stronger / more preferred TF binding; conditions: protein concentration: 100 nM; construct: GST-full length
T1 sequence: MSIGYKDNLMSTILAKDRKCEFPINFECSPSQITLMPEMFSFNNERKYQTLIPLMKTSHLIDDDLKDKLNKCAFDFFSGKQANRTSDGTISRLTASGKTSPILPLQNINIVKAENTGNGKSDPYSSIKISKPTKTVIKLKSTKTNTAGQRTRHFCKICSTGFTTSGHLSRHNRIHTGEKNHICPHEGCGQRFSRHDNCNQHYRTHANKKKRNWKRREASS
Procedure, shortened: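 Yeast transcription factors carrying a GST tag, as full-length proteins or DNA-binding domains, were produced by PURExpress in vitro transcription/translation. About 100-200 nM protein was applied to universal all-10-mer Agilent arrays, double-stranded by primer extension on fresh or once-stripped slides. Bound protein was detected with fluorescent anti-GST, and scans were normalised with masliner. The Universal PBM Analysis Suite gave each ungapped eight-base word, pooled with its reverse complement, an E-score, a modified Wilcoxon-Mann-Whitney statistic.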

Row | Sequence | PBM E-score
1 | GCAGTCAA | -0.244
2 | AGCTGGGC | -0.0291
3 | TCCACACA | 0.0797
4 | AGATCGAC | -0.00905
5 | GGCATTGA | 0.0124
6 | AAATTCGA | -0.0488
7 | GCCAAGGC | -0.015
8 | CAGTGTCG | -0.216
9 | CTAAAAAG | -0.0621
10 | ATGCACTG | 0.0137
11 | AATATTTA | 0.14
12 | TAGCAATA | 0.0853
13 | ACCAAAGA | 0.0501
14 | ATTGGGAG | -0.0508
15 | CACTACTC | 0.0575
16 | AGAACAAT | 0.166
17 | CGTATAGC | 0.038
18 | GTCGTAAA | -0.0631
19 | AAAACTCC | -0.165
20 | AAAGTGTG | 0.0476
21 | CCAACACC | -0.126
22 | CCGGACAC | -0.0991
23 | ATCTTGCA | 0.256
24 | GAAGCACC | -0.124
25 | GACTACTC | 0.0159

Row | Sequence | PBM E-score
26 | CCGTGCAG | 0.019
27 | AGGCGTTA | -0.192
28 | CAATCCAA | 0.0505
29 | ATCGGATC | 0.0451
30 | AGTATAAT | 0.257
31 | CTCGCCGA | 0.0308
32 | ACGTGTAC | -0.0564
33 | TACTACCA | -0.0799
34 | CAAAGATA | 0.187
35 | CGTCCAGA | -0.182
36 | GCATATCC | 0.175
37 | GAACGCGA | 0.135
38 | CGAATTCG | -0.0163
39 | CGCGCACC | 0.14
40 | ATATGTAC | 0.153
41 | AGAGCAGA | -0.0249
42 | ACCGTATA | -0.105
43 | CAGAGGCA | -0.00504
44 | AAGCCGCT | -0.05
45 | ATAGAAAA | 0.0654
46 | AGACGGAT | 0.0985
47 | AGATACTG | 0.242
48 | ACTCTCAC | 0.0525
49 | AATTGCGT | 0.173
50 | CATAATAA | 0.0578

Numbers 36 to 38 from above:
Row | Sequence | PBM E-score
36 | GCATATCC | 0.175
37 | GAACGCGA | 0.135
38 | CGAATTCG | -0.0163

Further entries

Row | Sequence | PBM E-score
51 | AATATTGC | 0.149
52 | CCTGAATA | 0.181
53 | CACACAGC | 0.128
54 | AGCGCTCA | 0.0198
55 | CCTTGTCA | -0.0381
56 | AAATGTGA | 0.0196
57 | AATGACGA | 0.0909
58 | AGGTAGAG | -0.207
59 | CGGCAGTA | -0.0249
60 | ACAGCGAC | -0.133
61 | ATTCCCGG | 0.101
62 | CCCGGTCC | -0.254
63 | CACGTGGG | -0.138
64 | AGAAAATA | 0.0846
65 | TTAAGAAA | -0.108
66 | AAAAATAA | 0.132
67 | GCTCAAGC | -0.0931
68 | GGCCCATA | 0.0977
69 | ACCGCGAC | 0.0348
70 | CCGTAGAA | -0.225
71 | GGACGCTA | -0.163
72 | AAGCTTGC | -0.12
73 | AGTCACGC | -0.17
74 | CCGATCGA | -0.164
75 | ATACGGAA | 0.136

Row | Sequence | PBM E-score
76 | CTAGATAG | -0.0285
77 | ACCTGCCT | -0.0389
78 | GATAGAAA | 0.0506
79 | TCCCAGGA | -0.18
80 | GAATTCCA | 0.188
81 | AAATCTTC | -0.042
82 | AGAGAACC | -0.0525
83 | CCTAAGAG | 0.127
84 | ACTTGGGC | -0.083
85 | TGGCCCCA | -0.0392
86 | AGAGAACA | -0.0332
87 | ACATAGCC | 0.12
88 | CCCGCTGA | -0.056
89 | ATTCCCGC | 0.194
90 | CCCTATTC | 0.0448
91 | AGGAGCCG | -0.142
92 | AGGCAGAG | -0.152
93 | ATCTTTTC | 0.0439
94 | TGTGGAAA | 0.148
95 | GGTGGTCA | 0.0257
96 | ACTCCACC | -0.0649
97 | AACTATTC | -0.00543
98 | AGTTATTG | 0.174
99 | CACCTCGC | -0.0297
100 | CAAGCGTA | -0.121

Row | Sequence | PBM E-score
101 | CCCTGCAA | 0.162
102 | CTTAACAC | 0.0347
103 | AAGCCCTA | -0.167
104 | ACGGGAGT | 0.0417
105 | CCCATAGG | 0.0142
106 | CACATTCC | -0.0582
107 | GTATCAAA | 0.148
108 | CCTTGGCA | -0.0654
109 | ACGGTTGC | -0.0353
110 | ACTTAAAA | -0.122
111 | ATGCGCGC | 0.23
112 | GTTATCGA | 0.0283
113 | CGGCTATC | -0.0729
114 | CTGGCCAA | 0.0814
115 | AAGGGGCC | 0.0155
116 | GTTACCTA | 0.0439
117 | CAGGCTAA | -0.0857
118 | CGAAAACA | 0.0723
119 | AGATCCGA | 0.00014
120 | CGAGAGCA | 0.0136
121 | ATTTCCGC | 0.16
122 | CTTGAAAA | -0.0288
123 | AACCGGTC | -0.0894
124 | AGACCGGA | -0.0154
125 | ATCCCCTA | 0.0411

Row | Sequence | PBM E-score
126 | AATTTCCC | 0.205
127 | AGCACAAG | -0.217
128 | ACGCTCAA | 0.0169
129 | CGCGCCCG | -0.175
130 | CGCCGCAC | -0.00336
131 | CGACTGTC | -0.0486
132 | AAGCCTGT | 0.131
133 | CGCAAATC | -0.0654
134 | CTGCCACA | -0.117
135 | GCGAGCAA | 0.0895
136 | CTCTAAAC | -0.0249
137 | AACTCTAA | 0.023
138 | GGATGATA | 0.0223
139 | CTGGCCAG | 0.0704
140 | GCTCTCTA | -0.0388
141 | ATGCGATG | 0.0457
142 | GCGTAAAA | 0.0801
143 | ACGAGATG | 0.0596
144 | CGTTGAAA | -0.0581
145 | CTTTTAGC | -0.0898
146 | TCACCAAA | 0.131
147 | CCACTGAA | 0.0366
148 | AGCCGACC | -0.26
149 | CATTAGCC | -0.0571
150 | AGAGGGAA | -0.283

Shown with each value named: entries from further up
AACTCTAA
  PBM E-score = 0.023
GGATGATA
  PBM E-score = 0.0223
CTGGCCAG
  PBM E-score = 0.0704

Continuation.

Row | Sequence | PBM E-score
151 | CCGCAACC | 0.0364
152 | AATCGTTG | 0.102
153 | CGGCAGAG | -0.118
154 | AAGTCATG | 0.053
155 | ACACATTC | -0.0249
156 | AAATGAGA | 0.00107
157 | CACTGAGA | -0.162
158 | AGCGCGTA | 0.18
159 | GCGGACGA | -0.0348
160 | ACCTGAAG | -0.117
161 | AAATAGGT | 0.0575
162 | AGTAAACT | 0.0528
163 | TAAATTGA | 0.128
164 | ATCCCGAA | 0.191
165 | AGAGCATG | -0.0876
166 | AATGTTCT | -0.0628
167 | CTACTAAG | 0.0704
168 | GTAGTCTA | -0.118
169 | CGGTACTA | -0.163
170 | TGCATACA | 0.147
171 | GATATAAA | 0.0967
172 | GATTATGC | 0.162
